Laboratory results published in PubChem BioAssay AID1347423 (Functional Genomics Laboratory (NCATS/FGL), 2020).
Among all 52,000 sequences or so, about 210 (0.4%) were called active.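 The calls were made as follows: active = gene whose silencing raises cell survival under the drug, median off-target-corrected z-score across its silencing RNAs 2 or more; inactive = the rest.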 The list shows a part of the results.

experiment: Resistance to Poly (ADP-Ribose) Polymerase inhibitor: Gene Identification via Genome-wide siRNA Screen; conditions: mouse BRCA2 R2336H ES cells, olaparib, CellTiter-Glo viability; hits give high values
Summary of the method: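 Genome-wide siRNA screen (3 siRNAs/gene, 20 nM) in mouse ES cells carrying hypomorphic BRCA2 R2336H; olaparib 500 nM added 48 h post-transfection, CellTiter-Glo viability 72 h later. Normalized to plate-median negative control; MAD z-scores, gene median, seed-adjusted.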

Sequence	z-score
GGCACAGGUUUUCCAAGGUTT against Rp1hl1	inactive: -0.33
GGCAAAGAGGAAAAGAGUGTT against Gtf2h2	inactive: 3.07
GCCUUUGAUAGUGGUGAAUTT against F11r	inactive: -1.75
GGACGGUUCCUUCAUAGUATT against Kdelc1	inactive: -0.894
GCCGAUUCUCAUAUUUGACTT against Exo1	inactive: 0.209
GGUCAUUUUGUUUCGCUUUTT against Fgf5	inactive: -0.338
GCAUCUCCCAACCAUGAUGTT against Myl3	inactive: 2.08
GGAACUCCAACAGGACUUUTT against Slc26a9	inactive: -0.568
CAGUUCCGUACAGUUUUACTT against Hist1h3a	inactive: 1.49
GCAAUAAGGGCAUUAUAAATT against Wdhd1	inactive: -0.259
CCUAAUGAUGAGAUUAAUGTT against 1810024B03Rik	inactive: 0.285
GGUGAAAAGAGAUUUGAAUTT against Sp4	inactive: -0.91
GGUGGCUAUUAAAAGUAUUTT against Ulk2	inactive: 0.252
CCAAAUGCUAAGUAUACCUTT against 5730446C15Rik	inactive: -0.783
CCUACUUAUGCCUUGCCACTT against Rbpsuhl	inactive: 1.64
GGAUUGUUUAUCUGUCUUCTT against Cyp3a44	inactive: 1.32
CGGUGCUCAUGUUUAACUGTT against BC065078	inactive: -0.793
GGAGGUGACUAUCAUUUUUTT against Gng4	inactive: 0.0976
GGCAAAUACUUCACAUUAUTT against 9430034D17Rik	inactive: 0.099
GGAUUCUUUGGUCUAUUUCTT against 1700121L12Rik	inactive: -0.447
CGAAAAUAGUGAGGAUUAUTT against S100a18	inactive: 1.76
CCUUUAGCCCUCAAUAUUCTT against 2900006F19Rik	inactive: 0.402
CCUUCGAUAAAUCUCAAAUTT against Stambp	inactive: 0.529
GCAAUAGACCGUUAAUGGATT against Tslp	inactive: -0.183
GCGCGUCAUAAAAAGCAUATT against Lhx6	inactive: 1.08
CGACCUACUCUACAGCAAATT against B830045N13Rik	inactive: 1.09

A run of entries taken from the entries so far, as a working copy:
Sequence	z-score
GGUGAAAAGAGAUUUGAAUTT against Sp4	inactive: -0.91
GGUGGCUAUUAAAAGUAUUTT against Ulk2	inactive: 0.252
CCAAAUGCUAAGUAUACCUTT against 5730446C15Rik	inactive: -0.783

Later entries

Sequence	z-score
GGAGCAGAAAGAAAUUUCCTT against Gpa33	inactive: 0.732
CCAUAUGUGAGACAACACATT against Tas2r136	inactive: 0.982
GCUAGCAAUUAAAAGAUCGTT against Ppp2r2c	inactive: 0.583
GGUAUGAAUCUGGAGAUCATT against Por	inactive: 1.44
GCUGCCACUGGACACAUAATT against 4930591A17Rik	inactive: -2.54
GGUGUUUGCCGAGUGACUGTT against B930090D16Rik	inactive: -0.567
GGUUUCAGAGCUAAACCCUTT against D13Wsu64e	inactive: 0.671
GGAGUAUUGUUUUAAACCCTT against 4921511F01Rik	inactive: 0.69
CCAAAUGUAGCGGAACUGATT against Rsu1	inactive: -1.37
GCUAUGGGAUAUGAGCUGATT against BC008155	inactive: -0.679
GGUACCUGUUUGUUUUACATT against Epb4.1l4b	inactive: 5.02
AGGUGUCUACUUUCCAGCCTT against BC019537	inactive: 0.481
CGACAAGAAAACAUACUAGTT against 2810037C03Rik	inactive: -1.72
CGAUGUGACUGGUUUAAGGTT against Wtap	inactive: 0.64
CCUCAAGGCACUAAUAGAATT against Car7	inactive: -1.15
GCUGUUUGAUAAAACAAGATT against Snx6	inactive: -0.14
GGAGUUUAAUUACCAAACATT against 2700050L05Rik	inactive: 1.16
GGCUCGUGAGCAUUCACUGTT against Nfrkb	inactive: -1.31
GUGUCCUGAACCUUGUCCCTT against Sprr2g	inactive: -0.601
CGUAAGAUCAACGAGAGAUTT against D15Ertd785e	inactive: -0.708
GGUACAAUGUUCAUACCAATT against Rab9b	inactive: -0.746
GGGAGUCCUACGCAUAUGATT against BC051665	inactive: -0.549
GCAGCACACUUGGUACAUCTT against Icmt	inactive: 1.24
UGGUGCUGCUAUCUAUACCTT against Olfr330	inactive: -0.511
GGAGAGUGUCCUUUCAAAUTT against 6330416L07Rik	inactive: 0.369
GGUGACUGUCCUAUGAUAUTT against Crip2	inactive: 0.212
